This note sets out measurements from paper PMC7226152.

Chains of the proteins cited; added tags and fusions are not shown.
UniProt P19338: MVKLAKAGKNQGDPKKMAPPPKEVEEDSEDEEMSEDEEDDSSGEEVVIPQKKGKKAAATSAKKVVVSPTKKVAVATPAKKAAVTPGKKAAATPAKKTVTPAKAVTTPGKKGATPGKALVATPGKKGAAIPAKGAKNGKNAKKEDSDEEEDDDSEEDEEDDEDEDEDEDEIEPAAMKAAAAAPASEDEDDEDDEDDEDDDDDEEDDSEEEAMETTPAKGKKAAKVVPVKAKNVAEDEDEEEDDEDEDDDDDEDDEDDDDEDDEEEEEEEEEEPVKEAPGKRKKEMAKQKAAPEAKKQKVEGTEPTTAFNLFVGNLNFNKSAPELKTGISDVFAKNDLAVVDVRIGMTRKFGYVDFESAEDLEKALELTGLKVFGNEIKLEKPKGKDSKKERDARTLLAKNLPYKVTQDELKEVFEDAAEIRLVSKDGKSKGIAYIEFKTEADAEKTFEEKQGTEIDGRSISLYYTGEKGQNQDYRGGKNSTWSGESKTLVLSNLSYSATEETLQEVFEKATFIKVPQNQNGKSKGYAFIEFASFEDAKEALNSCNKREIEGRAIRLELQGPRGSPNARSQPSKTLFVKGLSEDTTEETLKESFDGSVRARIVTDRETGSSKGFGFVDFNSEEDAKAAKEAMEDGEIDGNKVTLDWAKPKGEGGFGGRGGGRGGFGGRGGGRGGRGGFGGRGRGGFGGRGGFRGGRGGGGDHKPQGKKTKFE

Results are given in words; binding and its absence hold for the method and conditions named. Some binding calls cover weakened binding; strength is not graded here.

This assay deals with nucleolin (human (endogenous in N87, OCUM-1, KATO-III)) (UniProt P19338). As to the kind of experiment: far-Western, overlay or dot blot; NCL immunoprecipitates blotted and screened for E-selectin affinity before and after neuraminidase digestion (negative control); Figure S4; method not described further; only the binder purified.

B1: Recombinant Mouse E-Selectin Ig Chimera Protein (Fc fusion, UniProt Q00690 22-557)
chain: WYYNASSELMTYDEASAYCQRDYTHLVAIQNKEEINYLNSNLKHSPSYYWIGIRKVNNVWIWVGTGKPLTEEAQNWAPGEPNNKQRNEDCVEIYIQRTKDSGMWNDERCNKKKLALCYTASCTNASCSGHGECIETINSYTCKCHPGFLGPNCEQAVTCKPQEHPDYGSLNCSHPFGPFSYNSSCSFGCKRGYLPSSMETTVRCTSSGEWSAPAPACHVVECEALTHPAHGIRKCSSNPGSYPWNTTCTFDCVEGYRRVGAQNLQCTSSGIWDNETPSCKAVTCDAIPQPQNGFVSCSHSTAGELAFKSSCNFTCEQSFTLQGPAQVECSAQGQWTPQIPVCKAVQCEALSAPQQGNMKCLPSASGPFQNGSSCEFSCEEGFELKGSRRLQCGPRGEWDSKKPTCSAVKCDDVPRPQNGVMECAHATTGEFTYKSSCAFQCNEGFSLHGSAQLECTSQGKWTQEVPSCQVVQCPSLDVPGKMNMSCSGTAVFGTVCEFTCPDDWTLNGSAVLTCGATGRWSGMPPTCEAPVSPTRP
For the molecule B1, the binding entry is recorded as “binds”.
